For at least one compound, name, drawing or mass did not settle the structure.
Tested on: acute peritonitis model
Assay: LPS-induced acute peritonitis model, inflammatory factors in peritoneal fluids
Type: in vivo
Conditions: dexamethasone 10 mg/kg by intraarticular injection, male ICR mice, 6 h after injection, FIGS. 6-8
Procedure: Male clean-grade ICR mice were housed with free access to water and food, and with illumination for 12 h every day at an ambient temperature of 25±2° C. The animals were divided into several groups, that is, a normal control group, a model control group, and administration groups (test compound and dexamethasone). An acute peritonitis model was induced by a single intraperitoneal injection of LSP, while an equal volume of physiological saline was injected into the joint cavity in the normal control group. Each administration group was given test compound 5 (5 mg/kg, 10 mg/kg, and 20 mg/kg) and dexamethasone (10 mg/kg) by intraarticular injection. 6 h after the injection, 8 mL of PBS was injected, and the peritoneal cavity fluids were collected.

C[C@@H]1C[C@H]2[C@@H]3CCC4=CC(=O)C=C[C@]4(C)[C@@]3(F)[C@@H](O)C[C@]2(C)[C@@]1(O)C(=O)CO [dexamethasone, reference compound]
gene expression levels of inflammatory factors in mouse peritoneal fluids: showed an expected effect

From US20260258010A1, “THIOPHENE-2-CARBOXYLIC ACID DERIVATIVE, AND PREPARATION METHOD THEREFOR AND MEDICAL USE THEREOF” (CHINA PHARMACEUTICAL UNIVERSITY, priority 2023, published 2026)
